According to patent US20250154500A1:
These are yes or no findings as the source states them, for the method shown. In cells and extracts the contact can be indirect. Some binding calls cover weakened binding; strength is not graded here.

The chains behind the UniProt entries cited, without tags or fusion partners.
UniProt Q5XG87: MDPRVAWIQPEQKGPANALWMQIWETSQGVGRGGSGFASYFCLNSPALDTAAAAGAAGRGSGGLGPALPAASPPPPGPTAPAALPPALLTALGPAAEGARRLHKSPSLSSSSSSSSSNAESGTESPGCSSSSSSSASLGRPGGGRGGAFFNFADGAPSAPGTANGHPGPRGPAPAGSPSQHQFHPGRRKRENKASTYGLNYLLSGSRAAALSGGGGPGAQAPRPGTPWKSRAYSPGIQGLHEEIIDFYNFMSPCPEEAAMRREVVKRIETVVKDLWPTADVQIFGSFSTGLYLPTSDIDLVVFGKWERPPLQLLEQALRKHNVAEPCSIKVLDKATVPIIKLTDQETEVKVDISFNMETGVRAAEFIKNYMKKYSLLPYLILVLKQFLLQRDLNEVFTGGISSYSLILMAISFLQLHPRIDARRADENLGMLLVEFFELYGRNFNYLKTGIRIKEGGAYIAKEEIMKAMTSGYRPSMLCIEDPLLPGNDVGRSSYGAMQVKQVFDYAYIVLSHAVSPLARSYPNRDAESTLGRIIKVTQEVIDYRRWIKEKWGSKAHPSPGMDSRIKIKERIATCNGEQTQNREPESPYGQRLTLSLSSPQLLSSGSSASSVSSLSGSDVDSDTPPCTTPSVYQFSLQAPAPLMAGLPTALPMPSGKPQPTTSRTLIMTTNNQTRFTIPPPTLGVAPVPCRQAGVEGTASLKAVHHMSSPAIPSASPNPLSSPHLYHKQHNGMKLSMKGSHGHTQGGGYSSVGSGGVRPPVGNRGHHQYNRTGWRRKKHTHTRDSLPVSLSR
UniProt Q8NDF8: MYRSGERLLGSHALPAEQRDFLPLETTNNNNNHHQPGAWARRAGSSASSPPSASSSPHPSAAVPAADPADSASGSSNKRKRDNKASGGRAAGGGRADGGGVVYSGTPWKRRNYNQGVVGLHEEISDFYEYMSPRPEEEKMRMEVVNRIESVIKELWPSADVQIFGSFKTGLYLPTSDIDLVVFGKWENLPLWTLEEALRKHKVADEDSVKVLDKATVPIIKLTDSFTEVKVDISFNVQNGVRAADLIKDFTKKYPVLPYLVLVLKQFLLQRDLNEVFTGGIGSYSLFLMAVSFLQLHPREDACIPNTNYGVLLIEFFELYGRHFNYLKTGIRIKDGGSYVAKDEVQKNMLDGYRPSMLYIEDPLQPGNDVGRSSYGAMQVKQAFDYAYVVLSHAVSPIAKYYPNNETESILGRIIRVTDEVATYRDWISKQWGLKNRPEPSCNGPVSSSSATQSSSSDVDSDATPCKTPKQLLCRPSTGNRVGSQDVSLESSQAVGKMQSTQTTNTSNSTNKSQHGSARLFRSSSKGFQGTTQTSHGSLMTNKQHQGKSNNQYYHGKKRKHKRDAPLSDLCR
UniProt Q9C0B9: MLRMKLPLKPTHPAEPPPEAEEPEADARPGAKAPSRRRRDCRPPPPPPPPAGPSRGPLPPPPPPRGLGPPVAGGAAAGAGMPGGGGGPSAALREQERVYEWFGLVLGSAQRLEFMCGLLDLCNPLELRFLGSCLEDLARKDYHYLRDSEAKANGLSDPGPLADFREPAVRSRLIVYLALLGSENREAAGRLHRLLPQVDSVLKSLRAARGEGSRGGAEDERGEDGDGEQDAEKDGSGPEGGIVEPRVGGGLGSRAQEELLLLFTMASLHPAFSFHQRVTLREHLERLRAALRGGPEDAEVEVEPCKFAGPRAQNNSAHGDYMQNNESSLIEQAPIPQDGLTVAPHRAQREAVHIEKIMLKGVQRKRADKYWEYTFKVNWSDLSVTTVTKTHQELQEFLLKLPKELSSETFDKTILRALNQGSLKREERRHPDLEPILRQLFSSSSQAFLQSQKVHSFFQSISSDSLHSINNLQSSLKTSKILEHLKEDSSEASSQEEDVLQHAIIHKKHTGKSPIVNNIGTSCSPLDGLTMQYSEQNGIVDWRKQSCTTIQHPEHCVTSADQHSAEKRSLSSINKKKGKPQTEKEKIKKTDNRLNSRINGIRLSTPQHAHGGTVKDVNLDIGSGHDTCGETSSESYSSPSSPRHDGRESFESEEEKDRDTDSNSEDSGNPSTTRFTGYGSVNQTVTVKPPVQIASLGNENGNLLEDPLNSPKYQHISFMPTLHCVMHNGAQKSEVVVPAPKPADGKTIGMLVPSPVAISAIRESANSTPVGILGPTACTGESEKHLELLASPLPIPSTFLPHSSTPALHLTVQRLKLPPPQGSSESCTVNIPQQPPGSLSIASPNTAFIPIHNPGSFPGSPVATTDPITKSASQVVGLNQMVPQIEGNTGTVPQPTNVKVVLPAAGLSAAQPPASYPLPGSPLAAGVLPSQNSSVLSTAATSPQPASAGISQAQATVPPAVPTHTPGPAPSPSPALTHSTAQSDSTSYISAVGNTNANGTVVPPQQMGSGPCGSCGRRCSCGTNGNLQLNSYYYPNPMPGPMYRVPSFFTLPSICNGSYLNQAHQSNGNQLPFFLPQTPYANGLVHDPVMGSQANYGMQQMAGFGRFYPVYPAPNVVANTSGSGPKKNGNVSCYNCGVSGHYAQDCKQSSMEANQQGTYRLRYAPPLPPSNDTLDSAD

How the values were obtained:
TENT4A (human) [1] = target: TENT4A (human) (UniProt Q5XG87); experiment: anti-FLAG co-immunoprecipitation from HeLa ZCCHC2 KO cells, western blot
TENT4B (human) [2] = target: TENT4B (human) (UniProt Q8NDF8); experiment: as above
TENT4A (human) [3] = target: TENT4A (human) (UniProt Q5XG87); experiment: co-immunoprecipitation with anti-TENT4A, HeLa parental and TENT4 double KO lysates, western blot
TENT4B (human) [4] = target: TENT4B (human) (UniProt Q8NDF8); experiment: co-immunoprecipitation with anti-TENT4B, HeLa parental and TENT4 double KO lysates, western blot
TENT4B (human) [5] = target: TENT4B (human) (UniProt Q8NDF8); experiment: co-immunoprecipitation with anti-TENT4B from RNase A-treated HeLa lysate, western blot
TENT4A (human) [6] = target: TENT4A (human) (UniProt Q5XG87); experiment: co-immunoprecipitation with anti-TENT4A from RNase A-treated HeLa lysate, western blot

Measured: binding

FLAG-tagged full-length ZCCHC2 (from UniProt Q9C0B9 1-1178)
binds: TENT4A (human) [1] | TENT4B (human) [2]

ZCCHC2 (from UniProt Q9C0B9 1-1178)
binds: TENT4A (human) [3] | TENT4B (human) [4] | TENT4B (human) [5] | TENT4A (human) [6]
